# Results are given in words; binding and its absence hold for the method and conditions named. For some of these results: Binding seen in cells or lysates may run through a third protein. Some results given as binding are weak or reduced against the parent protein; the word gives no strength. For some of these results: Tags and fused reporters may be left off the sequences shown.
# Amino acid sequences for entries named in this document (tags omitted).
# UniProt P14713: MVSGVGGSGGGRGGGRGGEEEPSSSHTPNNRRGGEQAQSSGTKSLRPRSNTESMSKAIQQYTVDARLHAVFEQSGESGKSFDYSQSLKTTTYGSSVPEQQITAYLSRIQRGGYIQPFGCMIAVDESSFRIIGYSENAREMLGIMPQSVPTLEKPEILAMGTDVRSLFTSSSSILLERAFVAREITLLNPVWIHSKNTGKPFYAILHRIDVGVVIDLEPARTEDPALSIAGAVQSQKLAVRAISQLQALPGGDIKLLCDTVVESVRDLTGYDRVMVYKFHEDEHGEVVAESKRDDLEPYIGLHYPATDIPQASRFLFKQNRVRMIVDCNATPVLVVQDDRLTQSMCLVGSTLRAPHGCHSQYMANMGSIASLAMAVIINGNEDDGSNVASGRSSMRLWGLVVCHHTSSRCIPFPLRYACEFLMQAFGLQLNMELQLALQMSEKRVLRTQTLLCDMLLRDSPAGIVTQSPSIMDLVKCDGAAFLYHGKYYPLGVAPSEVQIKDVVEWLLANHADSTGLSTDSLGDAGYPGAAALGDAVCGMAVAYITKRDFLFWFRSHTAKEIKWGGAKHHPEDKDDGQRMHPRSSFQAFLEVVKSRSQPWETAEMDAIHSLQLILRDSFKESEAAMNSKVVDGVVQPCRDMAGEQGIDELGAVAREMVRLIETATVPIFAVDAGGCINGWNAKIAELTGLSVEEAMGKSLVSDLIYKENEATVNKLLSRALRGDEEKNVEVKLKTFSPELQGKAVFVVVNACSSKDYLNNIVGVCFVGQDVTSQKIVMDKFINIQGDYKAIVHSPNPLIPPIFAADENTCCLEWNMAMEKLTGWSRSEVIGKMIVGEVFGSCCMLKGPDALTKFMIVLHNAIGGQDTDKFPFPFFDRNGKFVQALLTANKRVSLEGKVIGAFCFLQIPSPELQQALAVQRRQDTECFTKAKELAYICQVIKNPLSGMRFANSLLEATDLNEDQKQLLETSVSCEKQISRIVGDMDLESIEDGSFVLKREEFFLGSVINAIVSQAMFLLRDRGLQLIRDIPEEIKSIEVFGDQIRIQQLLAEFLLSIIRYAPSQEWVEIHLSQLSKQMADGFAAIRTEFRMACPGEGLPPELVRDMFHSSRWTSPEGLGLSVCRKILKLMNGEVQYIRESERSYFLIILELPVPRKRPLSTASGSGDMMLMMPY
# T1: HA-YFP-PCHL (Arabidopsis thaliana) (UniProt O65680)
# T1 sequence: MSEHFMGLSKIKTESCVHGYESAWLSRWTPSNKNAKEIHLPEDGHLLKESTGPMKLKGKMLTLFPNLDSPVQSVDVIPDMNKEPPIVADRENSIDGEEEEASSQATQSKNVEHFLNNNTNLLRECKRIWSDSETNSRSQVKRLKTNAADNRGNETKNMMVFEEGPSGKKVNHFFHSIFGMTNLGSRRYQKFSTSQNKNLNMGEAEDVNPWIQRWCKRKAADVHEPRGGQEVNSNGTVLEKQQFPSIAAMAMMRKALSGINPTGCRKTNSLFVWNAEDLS
# T2: GAL4-DNA-binding domain fusion of PCHL (Arabidopsis thaliana) (UniProt O65680)
# T2 sequence: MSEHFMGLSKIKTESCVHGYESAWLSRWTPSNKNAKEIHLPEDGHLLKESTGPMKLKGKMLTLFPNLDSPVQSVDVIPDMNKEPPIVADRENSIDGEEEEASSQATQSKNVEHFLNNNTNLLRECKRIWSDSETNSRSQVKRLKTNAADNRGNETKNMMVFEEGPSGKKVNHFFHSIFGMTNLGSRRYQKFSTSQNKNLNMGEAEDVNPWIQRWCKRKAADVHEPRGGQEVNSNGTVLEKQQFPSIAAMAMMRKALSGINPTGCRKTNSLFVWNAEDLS
# What was measured:
# [1] = target: T1, HA-YFP-PCHL (Arabidopsis thaliana); experiment: co-IP; HA-YFP-PCH1 or HA-YFP-PCHL precipitated with α-GFP antibody on Dynabeads from native extracts of 4-day-old dark-grown seedlings (10 min red light or darkness); endogenous phyB detected with α-phyB; IP buffer 50 mM Tris/HCl pH 7.5, 150 mM NaCl, 0.1% NP-40; preference for phyB Pfr
# [2] = target: T2, GAL4-DNA-binding domain fusion of PCHL (Arabidopsis thaliana); experiment: two-hybrid; phyB-AD co-expressed with BD-PCH1 or BD-PCHL in yeast; media with 20 µM phycocyanobilin; X-Gal filter lift after 48 h at 26 °C in darkness, red or far-red light, and ONPG assay after 10 min red or far-red light; a weak preference for Pfr
# [3] = target: phyB expressed in HEK293T cells (Arabidopsis thaliana) (UniProt P14713); experiment: co-IP; lysates of transfected HEK293T cells given 15 µM phycocyanobilin; anti-GFP microbeads, 2 h at 4 °C protected from light; blots with α-GFP and α-c-Myc (Supplementary Fig. 1c, d)
# [4] = target: phyB-GFP (Arabidopsis thaliana) (UniProt P14713); experiment: co-IP; extracts of seedlings expressing phyB-GFP with c-Myc-mCherry-PCH1 or c-Myc-mCherry-PCHL; IP with α-GFP antibody on Dynabeads, blots with α-c-Myc and α-GFP; IP buffer 50 mM Tris/HCl pH 7.5, 150 mM NaCl, 0.1% NP-40 (Supplementary Fig. 1b)
molecule,measurement,setting,value
endogenous phyB (from UniProt P14713 1-1172) (receptor),binding,[1],binds
phyB-GAL4-activation domain fusion (from UniProt P14713 1-1172) (receptor),binding,[2],binds
"PCHL expressed in HEK293T cells (protein, UniProt O65680 1-279) MSEHFMGLSKIKTESCVHGYESAWLSRWTPSNKNAKEIHLPEDGHLLKESTGPMKLKGKMLTLFPNLDSPVQSVDVIPDMNKEPPIVADRENSIDGEEEEASSQATQSKNVEHFLNNNTNLLRECKRIWSDSETNSRSQVKRLKTNAADNRGNETKNMMVFEEGPSGKKVNHFFHSIFGMTNLGSRRYQKFSTSQNKNLNMGEAEDVNPWIQRWCKRKAADVHEPRGGQEVNSNGTVLEKQQFPSIAAMAMMRKALSGINPTGCRKTNSLFVWNAEDLS",binding,[3],binds
"c-Myc-mCherry-PCHL (protein, UniProt O65680 1-279) MSEHFMGLSKIKTESCVHGYESAWLSRWTPSNKNAKEIHLPEDGHLLKESTGPMKLKGKMLTLFPNLDSPVQSVDVIPDMNKEPPIVADRENSIDGEEEEASSQATQSKNVEHFLNNNTNLLRECKRIWSDSETNSRSQVKRLKTNAADNRGNETKNMMVFEEGPSGKKVNHFFHSIFGMTNLGSRRYQKFSTSQNKNLNMGEAEDVNPWIQRWCKRKAADVHEPRGGQEVNSNGTVLEKQQFPSIAAMAMMRKALSGINPTGCRKTNSLFVWNAEDLS",binding,[4],binds

# Source: publication PMC5738371
